The list shows a part of the results. Values are raw readings; no control value is given beside them.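 Primary screen: polymyxin B was added at a level permeabilizing Salmonella outer membranes while sparing inner membranes. DMSO wells, both with and without polymyxin B, established maximum growth. Plate-to-plate variation meant each plate was ranked on its own, and the lowest-OD600 compounds were selected as hits.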
Test system: Salmonella enterica serovar Typhimurium SL1344
Experiment: bacterial growth OD600 after 18 h with compound and polymyxin B; higher = more bacterial growth (less inhibition)
Conditions: 50 µM, Mueller-Hinton broth

| SMILES | bacterial growth OD600 (polymyxin B 1 µg/mL) | bacterial growth OD600 (polymyxin B 0.75 µg/mL) |
| --- | --- | --- |
| COc1ccccc1C(=O)Nc1ccnn1C1CCN(C(=O)Cn2ccc(C)n2)CC1 | 1.01 |  |
| COCC(=O)Nc1cc(C(=O)NC2CCN(Cc3ccccc3)C2)c2c(c1)nc(C1CCC1)n2C (configuration not stated) |  | 0.787 |
| Cc1ccc(CN(C)C(=O)c2cc(Cn3ccc4ccccc43)[nH]n2)o1 |  | 0.508 |
| COc1ccc(Cl)cc1NC(=O)CCC1CCCN(C(=O)CCCn2cncn2)C1 (configuration not stated) | 0.803 |  |
| CCCc1cc(CNC(=O)c2ccc(N3CCN(C(C)C)C(CC)C3)nc2)on1 (configuration not stated) | 0.892 |  |
| COC(=O)[C@@H]1CCCN1C(=O)c1cc(NS(=O)(=O)N(C)C)cc2nc(CC(C)C)n(C)c12 |  | 0.842 |
| Cc1ccccc1N1CCN(C2CCCN(C(=O)C3CCCCCC3)C2)CC1 (configuration not stated) | 0.847 |  |
| COCCNC(=O)c1ccc(OC)cc1OC1CCN(Cc2nccn2C)CC1 | 1.01 |  |
| CCOC(=O)C1(Cc2ccccc2)CCN(Cc2ccc(OC)cc2F)CC1 | 0.801 |  |
| Cc1nc2ccccc2n1CCC(=O)N1CCCC(Nc2ccc(F)cc2)C1 (configuration not stated) | 0.967 |  |
| CCOC(=O)N1CCC(N2CCCC(C(=O)c3cccc4ccccc34)C2)CC1 (configuration not stated) | 0.709 |  |
| CCn1ccnc1CN1CCC2(CCCN(Cc3cc(OC)ccc3F)C2=O)C1 (configuration not stated) | 0.812 |  |
| COc1ccccc1Oc1ncccc1CNC(=O)C1CCOCC1 | 1.04 |  |
| Cc1csc(C(C)NC(=O)c2cc(COc3ccc4c(c3)OCO4)[nH]n2)n1 (configuration not stated) | 0.859 |  |
| COc1ccc(Cc2noc(-c3ccc(N(C)Cc4nnc(C)o4)nc3)n2)cc1 | 0.87 |  |
| O=C(CC(c1ccccc1)c1ccc2c(c1)OCO2)NCCc1cnccn1 (configuration not stated) | 0.843 |  |

Single records, from the list above.
CCOC(=O)C1(Cc2ccccc2)CCN(Cc2ccc(OC)cc2F)CC1 is listed as bacterial growth OD600 (polymyxin B 1 µg/mL): 0.801
Cc1csc(C(C)NC(=O)c2cc(COc3ccc4c(c3)OCO4)[nH]n2)n1 (configuration not stated) is listed as bacterial growth OD600 (polymyxin B 1 µg/mL): 0.859

(continued)

| SMILES | bacterial growth OD600 (polymyxin B 1 µg/mL) | bacterial growth OD600 (polymyxin B 0.75 µg/mL) |
| --- | --- | --- |
| CCN(Cc1c[nH]cn1)CC1CCCN(CCc2cccc(F)c2)C1 (configuration not stated) |  | 0.85 |
| CCOC(=O)C1(Cc2ccc(F)cc2)CCCN(C(=O)c2cc(CC(C)C)n[nH]2)C1 (configuration not stated) |  | 0.528 |
| CCc1noc(CN(C)c2ccc(-c3nc(C(C)C)no3)cn2)n1 |  | 0.873 |
| O=C(NCC1COCCO1)C1CCN(c2nc(-c3ccccc3)nc3c2CCC3)CC1 (configuration not stated) | 0.867 |  |
| COc1ccc(F)c(CN2CCCC3(CCN(c4cnccn4)C3)C2=O)c1 (configuration not stated) | 0.906 |  |
| OCC1(Cc2ccccc2F)CCCN(Cc2c(F)cccc2Cl)C1 (configuration not stated) | 0.6 |  |
| Cc1c(C(C)NCc2cccc(F)c2)cnn1-c1ccccc1 (configuration not stated) |  | 0.373 |
| CN(CCC1CCCCO1)C(=O)c1coc(COc2cccc(F)c2)n1 (configuration not stated) | 0.898 |  |
| Cc1nccn1-c1ccc(CNC(=O)C2CCC(=O)N(Cc3ccccc3F)C2)cc1 (configuration not stated) | 0.932 |  |
| CCn1c(-c2cccc(OC)c2)nc2cc(NC(C)=O)cc(C(=O)NC(C)Cc3ccccn3)c21 (configuration not stated) |  | 0.879 |
| COc1ccc(C(=O)Nc2ccnn2C2CCN(C(=O)c3occc3C)CC2)cc1 | 0.956 |  |
| COc1ccccc1C(=O)NC1CC(=O)N(Cc2ccc(F)cc2)C1 (configuration not stated) | 0.924 |  |
| CSc1ccc(CN2CCCC(N3CCN(c4ccccc4C)CC3)C2)cc1 (configuration not stated) | 0.915 |  |
| CCOC(=O)C1(C/C=C/c2ccccc2)CCCN(Cc2nccs2)C1 (configuration not stated) |  | 0.004 |
| CC(C)c1ccc(NC2CCCN(C(=O)c3cc(C(C)C)n[nH]3)C2)cc1 (configuration not stated) | 0.614 |  |
| CCCc1cc(CNC(=O)c2ccc(N(C)CC)nc2)on1 | 0.933 |  |
